Consider 4 sequences from PMC10140301.

The exact form of at least one protein or probe is not confirmed. At least one verdict rests on a figure or table, not on a statement of the authors.

The subject of the series is DV-Hjc (Hjc/UPF0102 homolog). Description: EMSA. To be noted: 5 mM EDTA, no divalent metal, 50 mM Tris pH 8.0, 50 mM NaCl, 10 mM DTT, 15 C, 30 min, 80 nM FAM probe, DV-Hjc 329 nM, 10% native TBE PAGE, recombinant protein, protein details: His-MBP fusion, tag removed with TEV protease. (In general: Mobility shift assays separate free from complexed probe on a gel.)
The mark [1] stands for this setting: label: 5' FAM, single-stranded DNA.

On to “AGGCCATGGCTGATATCGCA (double strand) [DS 20 nt]”, for which, for the setting “label: 5' FAM on strand 1, letters put together from the description”, the binding result is “binds”.
As for AGGCCATGGCTGATATCGCA [SS 20 nt], under setting [1], the binding result is reported as “binds”.
Consider “AGGCCATGGCTGATATCGCATAGGCATTCGAGCTCCGTCG (double strand) [DS 40 nt]”, for which, where the note is “label: 5' FAM on strand 1”, the binding result is “binds”.
As to “AGGCCATGGCTGATATCGCATAGGCATTCGAGCTCCGTCG [SS 40 nt]”, the binding result under setting [1] is “binds”.
